# Data as given in PubChem BioAssay AID504444 (National Center for Advancing Translational Sciences (NCATS), 2011).
# Hit rate of the full screen: of about 360,000 compounds, about 7,500 (2.1%) were called active. The inconclusive results got no clear call from the source; some entries with a clear call stand among them for comparison. The call rests on the fitted dose curve; in most records, active means well fitted inhibition curve with a large enough effect; inconclusive means small, poorly fitted or top-dose-only effect, or effect the other way; inactive means flat fitted curve, though single readings scatter. A potency beside an inconclusive call is a rough fit, not a confirmed value.
# Assay: Nrf2 qHTS screen for inhibitors; further: nearly all actives have a fitted effect of over 60% in size
# Conditions: A549 ARE-Fluc reporter, luciferase luminescence, 18-24 h; activity change, negative = inhibition: at 46 µM (top of the series)
# Summary of the method: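 Two sequential reads on A549 ARE_Fluc cells exposed to compound for 18-24 h: a CellTiter-Fluor fluorescence read for viability, then a luciferase luminescence read for Nrf2/ARE activity.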
# On the % scale 0 is the no-effect control and ±100 the full control effect; potency means the concentration at half of the fitted maximal effect.
SMILES,Potency,"activity change, negative = inhibition"
CCOC(=O)C(C)n1cnc2c(oc3ccccc32)c1=O (stereo not drawn),"inconclusive: 16.4 µM [activator, partial curve, poor fit]",
Cc1ccccc1S(=O)(=O)Cc1ccc(C(=O)NCc2ccccc2Cl)o1,,inactive: -9.96%
Nc1nn(-c2ccccc2)nc1C(=O)OCc1ccccc1Br,,inactive: 23.4%
COc1ccc(-c2cc3ccc(OCC(C)=O)cc3oc2=O)cc1,"inconclusive: 23.1 µM [falling, single point]",
CCOC(=O)c1ccc2ncc(-c3ccccc3)nc2c1,"inconclusive: 23.1 µM [activator, partial curve]",
COc1ccc(C2c3ccc(O)cc3Oc3ncn4nc(-c5ccccn5)nc4c32)cc1OC (stereo not drawn),"inconclusive: 29.1 µM [falling, single point]",
CCC(C)Sc1ccc(-c2nc3ccc(Cl)cn3c2NCc2ccccc2)cc1 (stereo not drawn),"inconclusive: 3.66 µM [activator, full curve]",
Cc1cc(N2CCOCC2)ccc1/C=C1\NC(=O)N(Cc2ccccc2)C1=O,"inconclusive: 6.51 µM [falling, partial curve]",
O=C(C[C@H]1C[C@H](C(=O)N2CCOCC2)[C@@]2(CCC3CCCC3)c3[nH]c4cc(-c5ccco5)ccc4c3CCN2C1=O)NCCc1ccccn1,"inconclusive: 18.4 µM [falling, single point]",
CCOc1cccc(C(=O)Nc2ccc(N(CC)CC)cc2)c1,"inconclusive: 32.6 µM [falling, single point]",
Cc1ccccc1OCC(=O)Nc1ccc(N2CCN(C(=O)c3ccco3)CC2)cc1,active: 14.6 µM,
COc1ccc(N2CCN(C(=O)c3cn(C)c4ccc(S(=O)(=O)N(C)C5CCCCC5)cc4c3=O)CC2)cc1,,inactive: 7.84%
O=C(O)c1ccc2c(c1)C(=O)N(NC(=O)c1ccccc1)C2=O,,inactive: 20.4%
Cc1cc(C)c2c(n1)nn1c(-n3ccnc3)cc(C)nc21,"inconclusive: 13 µM [falling, single point]",
CC(=O)N1CCN(c2ccc(NC(=O)c3cccc(OCc4ccccc4)c3)cc2)CC1,"inconclusive: 29.1 µM [falling, single point]",
Brc1ccc2nc3c(n2c1)CCCC3,,inactive: 2.88%
FC(F)Oc1ccc(N=C2SCC3CCCCN23)cc1 (stereo not drawn),"inconclusive: 8.2 µM [activator, partial curve]",
COc1cc(-c2ccc3ncnc(NCCc4cnc[nH]4)c3c2)cc(OC)c1OC,"inconclusive: 2.59 µM [falling, partial curve, poor fit]",
Cc1ccc(-c2nc(S(=O)(=O)c3ccccc3)c(SCC(=O)NCC3CCCO3)o2)cc1 (stereo not drawn),"inconclusive: 25.9 µM [falling, partial curve, poor fit]",
CCN1CCc2c(sc(NC(=O)Nc3ccc(Cl)c(Cl)c3)c2C(N)=O)C1,,inactive: -3.46%
O=C(O)Cc1sc(Nc2ccc(C(=O)O)cc2)nc1-c1ccccc1,"inconclusive: 18.4 µM [activator, single point]",
CCN(CCCNC(=O)c1cn(CC)c2ccc(S(=O)(=O)N(C)C)cc2c1=O)c1cccc(C)c1,"inconclusive: 29.1 µM [falling, single point]",
Cc1cc(NC(=O)c2cc([N+](=O)[O-])cc([N+](=O)[O-])c2)no1,"inconclusive: 23.1 µM [falling, single point]",

SMILES,Potency,"activity change, negative = inhibition"
CCCc1cc(=S)n2c([nH]c3ccccc32)c1C#N,"inconclusive: 23.1 µM [falling, single point]",
COc1ccc([C@@H]2CC=C(C(=O)O)[C@H](c3cccc(Cl)c3)N2S(=O)(=O)c2ccc(Cl)cc2)cc1,"inconclusive: 18.4 µM [falling, single point]",
Cc1cc(F)ccc1NS(=O)(=O)c1cccc2nsnc12,"inconclusive: 2.91 µM [falling, partial curve]",
O=C(c1ccccc1)C1CCN(CC(=O)N2CCN(c3ccccc3)CC2)CC1,"inconclusive: 29.1 µM [activator, partial curve, poor fit]",
O=C(CCNC(=O)c1ccc(Br)cc1)NC1CCCc2ccccc21 (stereo not drawn),"inconclusive: 5.8 µM [activator, full curve]",
O=C(NCCSc1ccccc1)c1ccccc1Cl,"inconclusive: 10.3 µM [activator, partial curve, poor fit]",
CCc1cc(C(=O)N2CCCC(C(=O)c3cccc4ccccc34)C2)n(C)n1 (stereo not drawn),"inconclusive: 16.4 µM [falling, partial curve]",
COc1ccc2c(c1)CCc1c(C(=O)Nc3c(C)nn(Cc4c(Cl)cccc4Cl)c3C)noc1-2,,inactive: 1.5%
COc1cc(-c2nnc(NC(=O)CCS(=O)(=O)c3ccccc3)o2)cc(OC)c1OC,,inactive: 3.58%
O=C(NCC(c1ccco1)N1CCN(c2ccc(F)cc2)CC1)c1cccs1 (stereo not drawn),,inactive: 10.1%
Cc1cccc(NC(=O)CC2S/C(=N/c3nccs3)N(C)C2=O)c1 (stereo not drawn),,inactive: -14.5%
CC(=O)c1ccc(OCCCC(=O)N(CCC2=CCCCC2)c2c(N)n(Cc3ccccc3)c(=O)[nH]c2=O)cc1,"inconclusive: 13 µM [falling, partial curve, poor fit]",
Cc1ccc(S(=O)(=O)N2CCCC2C(=O)NCCc2nc3ccccc3[nH]2)cc1 (stereo not drawn),"inconclusive: 14.6 µM [falling, partial curve]",
COc1ccc(-c2csc(=Nc3ccccc3)n2CCO)cc1,"inconclusive: 29.1 µM [falling, single point]",
O=C(c1cccs1)c1cn(CCOc2ccc(F)cc2)c2ccccc12,"inconclusive: 0.0041 µM [falling, full curve, poor fit]",
COc1ccc(C(=O)C[n+]2ccc(N(C)C)cc2)cc1,active: 20.6 µM,
CCOC(=O)c1c(C)[nH]c(C)c1S(=O)(=O)NCC(=O)Nc1ccc(CC)cc1,"inconclusive: 16.4 µM [activator, single point]",
COc1cccc(C(C(=O)NC2CCCCC2)N(C(=O)c2cccs2)c2ccc3c(c2)OCO3)c1 (stereo not drawn),"inconclusive: 29.1 µM [falling, single point]",
O=C(CNC(=O)c1cccc(Br)c1)N/N=C/c1cccs1,"inconclusive: 23.1 µM [falling, partial curve, poor fit]",
CN(C)Cc1c(C(=O)N/N=C/c2cccc(OCc3c(F)cccc3Cl)c2)nnn1-c1nonc1N,active: 3.66 µM,
CCc1ccccc1NC(=O)c1cc2sc(Cl)cc2n1CC,"inconclusive: 6.51 µM [falling, single point]",
O=C(c1ccc(CS(=O)c2ccccc2Cl)o1)N1CCN(c2cccc(C(F)(F)F)c2)CC1 (stereo not drawn),"inconclusive: 29.1 µM [falling, single point]",
Cc1cc(C(=O)COC(=O)Cc2n[nH]c(=O)c3ccccc23)c(C)n1-c1ccc2c(c1)OCO2,,inactive: -24.1%

# Another view of part of the listing above.
SMILES | Potency | activity change, negative = inhibition
CCCc1cc(=S)n2c([nH]c3ccccc32)c1C#N | inconclusive: 23.1 µM [falling, single point] | 
CCOC(=O)c1c(C)[nH]c(C)c1S(=O)(=O)NCC(=O)Nc1ccc(CC)cc1 | inconclusive: 16.4 µM [activator, single point] | 

# Later entries

SMILES,Potency,"activity change, negative = inhibition"
O=C(NCCCCc1ccccc1)c1nn(-c2ccccc2F)nc1CO,"inconclusive: 18.4 µM [falling, partial curve, poor fit]",
COc1ccc(S(=O)(=O)Nc2ccc3c(c2)OCO3)cc1Cl,"inconclusive: 29.1 µM [falling, single point]",
O=C(Nc1ccccc1)Nc1cccc2cccnc12,"inconclusive: 2.59 µM [activator, full curve, poor fit]",
CC(=NNc1ccccc1)C(C)=NNc1ccccc1,,inactive: 4.27%
COc1ccccc1CC(=O)NC1CC(C)(C)NC(C)(C)C1,,inactive: 0.0433%
CC(C)(C)Nc1nc(Cl)nc(Nc2ccccc2)n1,"inconclusive: 13 µM [activator, partial curve, poor fit]",
O=C(O)c1cc2c([nH]c1=O)CCCC2,,inactive: 8.42%
CCCC[C@@H]1CNCCN1CCc1cccc2ccccc12,,inactive: 10.3%
O=C1/C(=C/c2cccs2)SC(=S)N1CCCC(=O)N(CCO)c1ccccc1,"inconclusive: 29.1 µM [falling, single point]",
O=C(c1cccc(Cl)c1)N(Cc1ccco1)C1CCS(=O)(=O)C1 (stereo not drawn),,inactive: -8.62%
Cn1c(CO)c(-c2ccccc2)c2cc([N+](=O)[O-])ccc21,"inconclusive: 23.1 µM [falling, single point]",
Nc1cccc(-c2nc3ccccc3s2)c1,"inconclusive: 9.2 µM [activator, partial curve]",
CC(C)c1nnc(NC(=O)CCC(=O)N2CCN(C3c4ccccc4-c4ccccc43)CC2)s1,,inactive: -6.05%
CN(C)c1cccc(C(=O)NNC(=S)NC2CC3CCC2C3)c1 (stereo not drawn),"inconclusive: 18.4 µM [activator, single point]",
O=C(COC(=O)c1cccc2ccccc12)Nc1ncc(C(F)(F)F)cc1Cl,,inactive: 1.89%
N#Cc1cccc(Nc2c3c(nc4ccccc24)CCC3)c1,"inconclusive: 32.6 µM [falling, partial curve, poor fit]",
C/C(=N\NC(=O)c1n[nH]c2c1CCC2)c1ccco1,"inconclusive: 32.6 µM [falling, partial curve, poor fit]",
COc1cc2c3nnc(-c4ccc(F)cc4)c-3cn(Cc3cccc(F)c3)c2cc1OC,,inactive: -5.52%
COc1ccc(-c2cn(-c3ccc(C)cc3)c(S(=O)(=O)CC(=O)Nc3ccccc3)n2)cc1,,inactive: -61.5% [at 9.27 µM]
O=C(Cc1ccc(S(=O)(=O)N2CCOCC2)s1)N1CCN(c2cccc(C(F)(F)F)c2)CC1,"inconclusive: 18.4 µM [falling, single point]",
Cc1ccc(NC(=O)Nc2ccc3c(c2)nnn3C)cc1C,"inconclusive: 1.03 µM [activator, full curve, poor fit]",
CCOc1ccc(NC(=O)c2ccc(NCC(=O)N3CCCCCC3)cc2)cc1,"inconclusive: 2.91 µM [activator, partial curve]",
